No constants are given. Whether binding was seen depends on the method and setting. Some entries that bind do so weakly or less than the wild type.
How the values were obtained:
[1] = target: human mt-TyrRS wild-type monomer as it stands in the covalently linked WT-WT heterodimer (human) (UniProt Q9Y2Z4); test: native gel or EMSA; native 8% PAGE of the linked enzyme (20 ug; the two monomers joined on one chain by a GGGGS x4 linker), 0.75 M Tris pH 8.8, 4 °C, 90 V for 3 h, Western blot (anti-His, anti-mt-TyrRS); migration compared with the unlinked WT/WT dimer; both purified
[2] = target: T1, human mt-TyrRS ΔE264 monomer as it stands in the covalently linked F185L-ΔE264 heterodimer (recoded copy) (human) (UniProt Q9Y2Z4); test: as above
T1 sequence: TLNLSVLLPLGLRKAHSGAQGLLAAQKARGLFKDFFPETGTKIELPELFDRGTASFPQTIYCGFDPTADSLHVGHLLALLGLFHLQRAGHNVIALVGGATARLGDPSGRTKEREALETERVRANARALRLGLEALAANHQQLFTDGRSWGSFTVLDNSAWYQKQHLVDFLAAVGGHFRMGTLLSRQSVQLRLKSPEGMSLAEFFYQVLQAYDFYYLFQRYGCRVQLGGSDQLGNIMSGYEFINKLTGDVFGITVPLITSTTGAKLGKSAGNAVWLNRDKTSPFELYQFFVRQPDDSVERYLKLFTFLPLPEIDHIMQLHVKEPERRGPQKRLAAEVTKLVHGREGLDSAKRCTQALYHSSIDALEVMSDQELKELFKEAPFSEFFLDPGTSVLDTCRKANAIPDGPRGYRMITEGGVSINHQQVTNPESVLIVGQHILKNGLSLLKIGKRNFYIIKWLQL

B1: human mt-TyrRS wild-type monomer as it stands in the covalently linked WT-WT heterodimer (enzyme, UniProt Q9Y2Z4 17-477)
chain: TLNLSVLLPLGLRKAHSGAQGLLAAQKARGLFKDFFPETGTKIELPELFDRGTASFPQTIYCGFDPTADSLHVGHLLALLGLFHLQRAGHNVIALVGGATARLGDPSGRTKEREALETERVRANARALRLGLEALAANHQQLFTDGRSWGSFTVLDNSAWYQKQHLVDFLAAVGGHFRMGTLLSRQSVQLRLKSPEGMSLAEFFYQVLQAYDFYYLFQRYGCRVQLGGSDQLGNIMSGYEFINKLTGEDVFGITVPLITSTTGAKLGKSAGNAVWLNRDKTSPFELYQFFVRQPDDSVERYLKLFTFLPLPEIDHIMQLHVKEPERRGPQKRLAAEVTKLVHGREGLDSAKRCTQALYHSSIDALEVMSDQELKELFKEAPFSEFFLDPGTSVLDTCRKANAIPDGPRGYRMITEGGVSINHQQVTNPESVLIVGQHILKNGLSLLKIGKRNFYIIKWLQL
[1]
  binding: binds

B2: human mt-TyrRS F185L monomer as it stands in the covalently linked F185L-ΔE264 heterodimer (native-sequence copy) (enzyme, UniProt Q9Y2Z4 17-477)
chain: TLNLSVLLPLGLRKAHSGAQGLLAAQKARGLFKDFFPETGTKIELPELFDRGTASFPQTIYCGFDPTADSLHVGHLLALLGLFHLQRAGHNVIALVGGATARLGDPSGRTKEREALETERVRANARALRLGLEALAANHQQLFTDGRSWGSFTVLDNSAWYQKQHLVDLLAAVGGHFRMGTLLSRQSVQLRLKSPEGMSLAEFFYQVLQAYDFYYLFQRYGCRVQLGGSDQLGNIMSGYEFINKLTGEDVFGITVPLITSTTGAKLGKSAGNAVWLNRDKTSPFELYQFFVRQPDDSVERYLKLFTFLPLPEIDHIMQLHVKEPERRGPQKRLAAEVTKLVHGREGLDSAKRCTQALYHSSIDALEVMSDQELKELFKEAPFSEFFLDPGTSVLDTCRKANAIPDGPRGYRMITEGGVSINHQQVTNPESVLIVGQHILKNGLSLLKIGKRNFYIIKWLQL
[2]
  binding: binds

Reference: publication PMC11758952, “A kinetic model for compound heterozygous pathogenic variants in Tyrosyl-tRNA synthetase gene YARS2-Associated neonatal phenotype” (The Journal of Biological Chemistry, 2024)
